Experimental data reported in PubChem BioAssay AID2685 (National Center for Advancing Translational Sciences (NCATS), 2010).
Some of the results follow. The main result of the screen is listed elsewhere. These columns were measured beside it and carry no call. The list favours compounds with an active or inconclusive main result. The note in brackets gives the kind of curve behind each potency; many fits are weak.

Assay: qHTS Assay for Lipid Storage Modulators in Drosophila S3 Cells;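 on cell number change: cells counted by Cell Tracker Red CMTPX staining in the red channel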
Conditions: BODIPY lipid droplet fluorescence, 18-24 h; for cell number change: measured here: cell count max response, cells fed with added oleic acid
Summary of the method: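 Drosophila S3 cells got compounds at several concentrations plus oleic acid (400 uM solution). Laser-scanning cytometry with 488 nm excitation read lipid droplets at 500-530 nm and cells at 575-640 nm. Percent activity was relative to 20 uM Triacsin C.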

[1] = measured here: lipid fluorescence (Fed channel) AC50, cells fed with added oleic acid
[2] = measured here: cell number channel AC50, cells fed with added oleic acid

| SMILES | cell number change | AC50 [1] | AC50 [2] |
| --- | --- | --- | --- |
| C/C(=N\Nc1ccc(S(N)(=O)=O)cc1[N+](=O)[O-])c1cccs1 | -2.63% |  |  |
| CC1CCC(C(C)C)C(OC(=O)COC(=O)c2cccn2C)C1 (stereo not given) | -27.4% | 29.1 µM [falling, single point] |  |
| COc1ccc(/C(C)=N/NC(=O)C2C3CCCCC32)c(OC)c1 (stereo not given) | 39.5% | 14.6 µM [rising, partial curve] | 16.4 µM [rising, single point] |
| O=C(CCl)Nc1ccc(Sc2ccc(NC(=O)CCl)cc2)cc1 | -25.8% | 0.291 µM [falling, full curve] |  |
| O=S(=O)(c1cccc(COc2ccc(Cl)cc2Cl)c1)N1CCOCC1 | -10.3% | 32.6 µM [falling, partial curve, poor fit] |  |
| CCC1Nc2ncnc(N3CCN(c4ccccc4)CC3)c2N(Cc2ccc(C)cc2)C1=O (stereo not given) | -45.1% | 0.00517 µM [falling, full curve, poor fit] | 0.00461 µM [falling, full curve, poor fit] |
| CCc1ccc2oc(C(=O)NCC(c3ccc(OC)cc3)N3CCCCC3)c(C)c2c1 (stereo not given) | -2.64% | 0.13 µM [falling, single point] |  |
| Cc1occc1C(=O)Nc1ccccc1C#N | 0.867% | 0.58 µM [falling, partial curve, poor fit] |  |
| COc1cc([N+](=O)[O-])ccc1NC(=O)CC(C)C |  | 6.51 µM [rising, partial curve, poor fit] |  |
| CN(C(=O)CSc1nnc(-c2ccc(C(C)(C)C)cc2)n1C)C1CCS(=O)(=O)C1 (stereo not given) |  | 8.2 µM [falling, partial curve] |  |
| CC(NC(=O)/C(C#N)=C/c1cccs1)c1ccccc1 (stereo not given) | -0.611% |  |  |
| Cc1cc(NC(=O)C2CCN(S(=O)(=O)c3c(C)noc3C)CC2)ccc1Br | 3.04% | 0.58 µM [falling, full curve, poor fit] |  |
| COc1ccc(N(Cc2nnc3n2CCCCC3)C(=O)Nc2ccccc2)cc1 | 1.72% | 0.00517 µM [falling, full curve, poor fit] | 0.82 µM [falling, full curve, poor fit] |
| C=CCn1c(SC)nc2sc3c(c2c1=O)CCc1ccccc1-3 | 99.5% | 25.9 µM [rising, partial curve] | 29.1 µM [rising, single point] |
| O=C(Oc1cc(-c2ccccc2)no1)c1ccc(F)cc1 | 38.3% | 0.00461 µM [rising, full curve, poor fit] | 16.4 µM [rising, partial curve, poor fit] |
| CC(=O)Oc1ccc2nc(-c3ccc(Br)o3)oc(=O)c2c1 | -10.2% |  |  |
| CCC(NC(=O)NC1=NCCS1)(C(F)(F)F)C(F)(F)F | 0.326% | 32.6 µM [falling, single point] |  |
| CCOC(=O)C1=C(COC(=O)CCOc2cccc(C)c2)NC(=O)NC1C (stereo not given) | -6.81% | 3.26 µM [falling, single point] |  |

Ordered by molecular weight (falling): 3 of the compounds above.

| SMILES | cell number change | AC50 [1] | AC50 [2] |
| --- | --- | --- | --- |
| O=C(CCl)Nc1ccc(Sc2ccc(NC(=O)CCl)cc2)cc1 | -25.8% | 0.291 µM [falling, full curve] |  |
| COc1cc([N+](=O)[O-])ccc1NC(=O)CC(C)C |  | 6.51 µM [rising, partial curve, poor fit] |  |
| Cc1occc1C(=O)Nc1ccccc1C#N | 0.867% | 0.58 µM [falling, partial curve, poor fit] |  |

The list goes on:

| SMILES | cell number change | AC50 [1] | AC50 [2] |
| --- | --- | --- | --- |
| COc1cccc(CC2(CO)CCN(S(=O)(=O)c3ccc(OC)cc3OC)CC2)c1 | 18.2% |  |  |
| COc1ccc(N=c2oc3ccc(OC)cc3cc2-c2nc3ccccc3[nH]2)cc1 | -60.6% | 6.51 µM [falling, single point] | 29.1 µM [falling, single point] |
| O=C1COc2ccc(S(=O)(=O)N3CCCCC3)cc2N1 | -17.7% | 29.1 µM [rising, single point] |  |
| CCOc1ccc(S(=O)(=O)N2CCOCC2)cc1NC(=O)c1ccccc1F | 60.3% | 5.17 µM [rising, single point] | 23.1 µM [rising, partial curve, poor fit] |
| CCc1cc2c(=O)nc3n(c2s1)Cc1ccccc1/C3=C(/O)c1ccccc1Cl | 3.95% | 2.91 µM [rising, partial curve] |  |
| CCc1nnc2n1N=C(c1cccc([N+](=O)[O-])c1)CS2 | 15.6% | 0.13 µM [rising, full curve, poor fit] |  |
| CCOC(=O)c1c(NC(=O)CS(=O)(=O)c2cn(CC)c3ccccc23)sc2c1CCCCC2 | 17.4% | 0.13 µM [rising, single point] |  |
| CCC1CCCCN1CC(=O)Nc1cc(OC)c(OC)cc1C#N (stereo not given) | 18.4% | 0.92 µM [rising, full curve, poor fit] | 0.411 µM [rising, partial curve, poor fit] |
| O=C(Nc1ccc(F)cc1)N1CCN(c2ccc(F)cc2)CC1 | 5.79% | 29.1 µM [rising, single point] |  |
| CCCCn1nc(C(=O)Nc2ccc(S(=O)(=O)Nc3ncccn3)cc2)c2ccccc2c1=O | -19.4% |  | 0.82 µM [falling, full curve, poor fit] |
| O=C(N/N=C/c1sc(=O)n(Cc2ccc(Br)cc2)c1Cl)c1ccco1 | 70.8% | 29.1 µM [falling, single point] | 29.1 µM [rising, single point] |
| Cc1cccc(C(=O)Nc2cccc(OCC(=O)O)c2)c1 | -25.3% |  |  |
| N#Cc1cccc2cccc(S(=O)(=O)N3CCOCC3)c12 | -8.51% | 0.731 µM [falling, single point] | 0.82 µM [falling, full curve, poor fit] |
| N#CC(C#N)=C1C=CC=CN1/C(=C\c1ccccc1)C(=O)c1cccs1 | -47% | 29.1 µM [falling, single point] | 2.31 µM [rising, partial curve] |
| Cc1cccc(-c2cc3nc4c(c(N5CCCC(O)C5)n3n2)CCC4)c1 (stereo not given) | 29.7% | 2.59 µM [rising, partial curve] | 1.64 µM [rising, single point] |
| Cc1sc(NC(=O)CSc2nnc(COc3ccc(Cl)cc3)n2C)c(C#N)c1C | -3.86% | 29.1 µM [falling, single point] |  |
| CCOc1cnn(-c2cc(Oc3ccc(C)cc3)ncn2)c(=O)c1Cl | 15.5% | 3.26 µM [falling, partial curve] |  |
